Isolated mass and isolated yield data for eight substances are collected here from article PMC6940745 (International Journal of Molecular Sciences, 2019).

Some peptides are written in HELM: one residue between dots, names in brackets for other building blocks, links after the first $.

Data set [1] can be described thus: general procedure: Fmoc solid-phase peptide synthesis; 2-chlorotrityl; TBTU/DIPEA; TPTU/2,4,6-trimethylpyridine for amine coupling. Conditions: whole synthesis, 2TFA; for isolated yield: scale of the general procedure approximately 2 g 2-chloro-trityl-resin.
Data set [2] can be described thus: general procedure: Fmoc solid-phase peptide synthesis; Rink amide; TBTU/DIPEA; TPTU/2,4,6-trimethylpyridine for amine coupling. To be noted: whole synthesis, 2TFA; for isolated yield: scale of the general procedure approximately 2 g 2-chloro-trityl-resin.

For the substance “PEPTIDE1{[Bz].G.H.[dF].R.[dW].[NPr2]}$$$$V2.0”, in data set [1], the isolated mass is reported as 131 mg and the isolated yield is recorded as 12%.
In data set [2], “Bz-Gly-His-D-Phe-Arg-(N-IndEt)Gly-NH2 *2TFA” showed an isolated mass of 135 mg and an isolated yield of 13%.
Turning to “PEPTIDE1{[Bz].G.H.[dF].R.W.[am]}$$$$V2.0”, in data set [2], the isolated mass worked out at 196 mg and the isolated yield was determined as 19%.
Turning to “PEPTIDE1{[Bz].G.H.[dF].R.[L-2-NaphAla].[am]}$$$$V2.0”, in data set [2], the isolated mass amounted to 413 mg and the isolated yield came out at 39%.
As for “PEPTIDE1{[Bz].G.H.[dF].R.[dF].[am]}$$$$V2.0”, in data set [2], the isolated mass came out at 218 mg and the isolated yield is recorded as 22%.
In data set [2], “PEPTIDE1{[Bz].G.H.[dF].[Dab].W.[am]}$$$$V2.0” had an isolated mass of 170 mg and an isolated yield of 14%.
On to “PEPTIDE1{[Bz].G.H.[dF].R.[D-2-NaphAla].[am]}$$$$V2.0”, for which, in data set [2], the isolated mass worked out at 351 mg and the isolated yield was found to be 32%.
Consider “PEPTIDE1{[Bz].G.H.[dF].R.W.[NPr2]}$$$$V2.0”, for which, in data set [1], the isolated mass turned out to be 196 mg and the isolated yield is reported as 36%.
